# Results reported in patent US20060294618A1 (CORNELL RESEARCH FOUNDATION, published 2006).
# Amino acid sequences for entries named in this document (tags omitted). Residues count along the entry.
# UniProt P04517, residues 1850-2037: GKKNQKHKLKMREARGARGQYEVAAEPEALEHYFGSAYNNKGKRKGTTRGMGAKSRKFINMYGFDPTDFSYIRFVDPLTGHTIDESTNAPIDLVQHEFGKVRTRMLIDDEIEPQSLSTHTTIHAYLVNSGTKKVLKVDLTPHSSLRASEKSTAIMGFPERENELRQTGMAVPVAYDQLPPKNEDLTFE
# These are yes or no findings as the source states them, for the method shown. In cells and extracts the contact can be indirect. Some entries that bind do so weakly or less than the wild type.
# Biological target: GST-VPgHAT (Tobacco etch virus, strain HAT) (UniProt P04517)
# Assay: GST pull-down, 35S-labeled in vitro-translated eIF4E
binder,measurement,value
"eIF4E-RN (pvr1^+), 35S-labeled, translated in vitro from pET16b (protein, 35S-methionine label from in vitro translation) MATAEMEKTTTFDEAEKVKLNANEADDEVEEGEIVEETDDTTSYLSKEIATKHPLEHSWTFWFDNPVAKSKQAAWGSSLRNVYTFSTVEDFWGAYNNIHHPSKLVVGADLHCFKHKIEPKWEDPVCANGGTWKMSFSKGKSDTSWLYTLLAMIGHQFDHEDEICGAVVSVRGKGEKISLWTKNAANETAQVSIGKQWKQFLDYSDSVGFIFHDDAKRLDRNAKNRYTV",binding,binds
